Results are given in words; binding and its absence hold for the method and conditions named. For part of these data: In cells and extracts the contact can be indirect. Some entries that bind do so weakly or less than the wild type.
T1: recombinant full-length mouse IRF2 (mouse) (UniProt P23906)
T1 sequence: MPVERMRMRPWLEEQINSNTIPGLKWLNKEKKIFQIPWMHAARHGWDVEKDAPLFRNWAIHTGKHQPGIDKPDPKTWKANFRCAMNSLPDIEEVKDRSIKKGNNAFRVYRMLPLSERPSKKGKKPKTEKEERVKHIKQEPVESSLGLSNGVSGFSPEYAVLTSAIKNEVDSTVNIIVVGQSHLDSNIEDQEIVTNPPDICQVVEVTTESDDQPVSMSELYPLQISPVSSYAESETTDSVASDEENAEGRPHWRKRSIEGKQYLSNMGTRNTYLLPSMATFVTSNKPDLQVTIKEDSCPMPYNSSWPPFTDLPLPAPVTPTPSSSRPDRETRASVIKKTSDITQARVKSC


Legend:
[1] = biological target: T1, recombinant full-length mouse IRF2 (mouse); assay: native gel or EMSA
co-IP = substrate: SPOP (mouse (endogenous in BMDMs)) (UniProt Q6ZWS8); assay: co-IP

| binding [1] | binding (co-IP) | Binder |
| --- | --- | --- |
| no binding |  | recombinant mouse SPOP (aa28-329) (domain or fragment, UniProt Q6ZWS8 28-329, looked up) KVVKFSYMWTINNFSFCREEMGEVIKSSTFSSGANDKLKWCLRVNPKGLDEESKDYLSLYLLLVSCPKSEVRAKFKFSILNAKGEETKAMESQRAYRFVQGKDWGFKKFIRRDFLLDEANGLLPDDKLTLFCEVSVVQDSVNISGQNTMNMVKVPECRLADELGGLWENSRFTDCCLCVAGQEFQAHKAILAARSPVFSAMFEHEMEESKKNRVEINDVEPEVFKEMMCFIYTGKAPNLDKMADDLLAAADKYALERLKVMCEDALCSNLSVENAAEILILADLHSADQLKTQAVDFINYHA |
|  | binds | IRF1 (protein, UniProt P15314 1-329) MPITRMRMRPWLEMQINSNQIPGLIWINKEEMIFQIPWKHAAKHGWDINKDACLFRSWAIHTGRYKAGEKEPDPKTWKANFRCAMNSLPDIEEVKDQSRNKGSSAVRVYRMLPPLTRNQRKERKSKSSRDTKSKTKRKLCGDVSPDTFSDGLSSSTLPDDHSSYTTQGYLGQDLDMERDITPALSPCVVSSSLSEWHMQMDIIPDSTTDLYNLQVSPMPSTSEAATDEDEEGKIAEDLMKLFEQSEWQPTHIDGKGYLLNEPGTQLSSVYGDFSCKEEPEIDSPRGDIGIGIQHVFTEMKNMDSIMWMDSLLGNSVRLPPSIQAIPCAP |
|  | no binding | IRF2 (protein, UniProt P23906 1-349) MPVERMRMRPWLEEQINSNTIPGLKWLNKEKKIFQIPWMHAARHGWDVEKDAPLFRNWAIHTGKHQPGIDKPDPKTWKANFRCAMNSLPDIEEVKDRSIKKGNNAFRVYRMLPLSERPSKKGKKPKTEKEERVKHIKQEPVESSLGLSNGVSGFSPEYAVLTSAIKNEVDSTVNIIVVGQSHLDSNIEDQEIVTNPPDICQVVEVTTESDDQPVSMSELYPLQISPVSSYAESETTDSVASDEENAEGRPHWRKRSIEGKQYLSNMGTRNTYLLPSMATFVTSNKPDLQVTIKEDSCPMPYNSSWPPFTDLPLPAPVTPTPSSSRPDRETRASVIKKTSDITQARVKSC |
